Assay results: patent publication US20220016102A1, “ER PROTEIN REGULATORS AND USE THEREOF” (ShanghaiTech University, priority 2018, published 2022)

Tested on: MCF-7 cell line
Test: Assay for determination of inhibition of MCF-7 cell proliferation (CCK-8)
Format: cell-based
Conditions: Homo sapiens, MCF7, 96 h; MCF-7 cells, 4 days, CCK-8, FIG. 3
Procedure: MCF-7 were cultured in ncubator with 5% CO2 at 37° C. Complete medium was EMEM supplemented with 10% FBS, 100 U/mL Penicillin and Streptomycin, and 0.77 μg/mL recombinant human insulin.
10 μL CCK-8 reagent was added to the test well without adding the drugs, and after 4 h the O.D.value of the test well was recorded as the initial cell level. • After 4 days, 10 μL CCK-8 reagent was added, and the O.D.values was measured, and inhibition level was calculated.

- IC50: 602 nM
SMILES: CC/C(=C(\c1ccccc1)c1ccc(OCCN(C)C)cc1)c1ccccc1 [Tamoxifene, Tamoxifen, reference compound]
